{"source": "paper PMC12040169", "about": "(PLOS Biology, 2025)", "note": "Some of the results follow.", "data": [{"system": "T1, CTL2-GFP (C. trachomatis L2/434/Bu, GFP-expressing)", "T1 construct": "L2/434/Bu, GFP-expressing", "design": "species or system HeLa; Intracellular C. trachomatis growth in HeLa cells, bulk GFP fluorescence relative to DMSO", "details": "bulk GFP, single well; 28.5 h, 10 µM; inhibitor", "units": {"% of control remaining": "%"}, "values": [{"smiles": "CC(C)(C)c1cc(CCC(=O)N2CCN(C(=O)CCc3cc(C(C)(C)C)c(O)c(C(C)(C)C)c3)CC2)cc(C(C)(C)C)c1O", "note": "[CBK261963]", "% of control remaining": 121.057}, {"smiles": "O=C(O)c1ccc2[nH]cc(CN3CCOCC3)c2c1", "note": "[CBK287081]", "% of control remaining": 136.578}, {"smiles": "c1ccc2c(OCc3nc4c5c6c(sc5ncn4n3)CCCCC6)cccc2c1", "note": "[CBK264151]", "% of control remaining": 115.343}, {"smiles": "Nc1cccc(-c2cncc(NCC3CCOCC3)n2)c1", "note": "[CBK037221]", "% of control remaining": 176.855}, {"smiles": "CCOC(=O)CSc1nc(=O)cc(N)n1Cc1ccc(F)cc1", "note": "[CBK269938]", "% of control remaining": 123.245}, {"smiles": "COc1ccc(Cc2c(C)nc3c(C(=O)NCC4CCCO4)cnn3c2C)cc1", "note": "(centres unmarked) [CBK162183]", "% of control remaining": 111.566}, {"smiles": "Cc1c(C(=O)N(C)Cc2cc3ccccc3o2)nnn1C1CCNCC1", "note": "[CBK304307C]", "% of control remaining": 127.39}, {"smiles": "CC(C)[C@H](CO)n1c(=O)[nH]c2ncc(-c3ccco3)nc21", "note": "[CBK064479]", "% of control remaining": 136.797}, {"smiles": "CSc1ccc(-n2ncc(-c3cccc(C(F)(F)F)c3)n2)cc1", "note": "[CBK112666]", "% of control remaining": 113.144}, {"smiles": "COCCc1nc(C2CCN(C)CC2)n(Cc2ccccc2C)n1", "note": "[CBK307449]", "% of control remaining": 97.3061}, {"smiles": "CC(C)(CO)CNc1cncc(-c2ccccc2CO)n1", "note": "[CBK066088]", "% of control remaining": 192.34}, {"smiles": "COc1cc(/C=N/c2cccc3c(/N=C/c4ccc(O)c(OC)c4)cccc23)ccc1O", "note": "[CBK261224]", "% of control remaining": 11.483}, {"smiles": "CCN(CC)S(=O)(=O)c1cccc(-n2sc3ccccc3c2=O)c1", "note": "[CBK116501]", "% of control remaining": 95.6821}, {"smiles": "CC(C)(Cc1ccccc1)NCC(O)COc1ccc2c(c1)C1CCC2C1", "note": "(centres unmarked) [CBK018228C]", "% of control remaining": 56.4077}, {"smiles": "CC(C)[C@@H](CO)n1c(=O)[nH]c2ncc(-c3cccc(/C=C/C(=O)O)c3)nc21", "note": "[CBK065043]", "% of control remaining": 120.986}, {"smiles": "CN1CC[C@@H]2[C@H]1C(=O)NC[C@H](CCC(=O)NCc1cccs1)N2C", "note": "[CBK289028]", "% of control remaining": 85.1286}, {"smiles": "COc1cc(C(=O)N2CCCC3(CCN(C(=O)Cc4c[nH]c5ccccc45)C3)C2)cc(OC)c1OC", "note": "(centres unmarked) [CBK131601]", "% of control remaining": 122.558}, {"smiles": "COc1ncc(-c2cncc(N3CCCN(C)CC3)n2)c(OC)n1", "note": "[CBK065286]", "% of control remaining": 110.472}, {"smiles": "FC(F)(F)c1ccc(OC2CCNCC2)nc1", "note": "[CBK113287]", "% of control remaining": 124.864}, {"smiles": "Cc1ccc(C(=O)CN2CCC3(CC2)NCCc2c3[nH]c3ccc(F)cc23)cc1", "note": "[CBK039503]", "% of control remaining": 113.487}, {"smiles": "COc1ccccc1CN(CN1C(=O)c2ccccc2C1=O)CN1C(=O)c2ccccc2C1=O", "note": "[CBK265039]", "% of control remaining": 116.206}, {"smiles": "Cc1ccc(S(=O)(=O)N2CC(=O)NC2=S)cc1", "note": "[CBK023293]", "% of control remaining": 108.754}, {"smiles": "CCCc1[nH]nc(O)c1CCc1c(Cl)cccc1Cl", "note": "[CBK081403]", "% of control remaining": 103.101}, {"smiles": "CCCCc1ccc(NS(=O)(=O)c2ccc(C)c(C(=O)O)c2)cc1", "note": "[CBK296111]", "% of control remaining": 102.931}, {"smiles": "CCN(CC)C(=O)c1ccc(NS(=O)(=O)c2cc(F)c(Br)cc2F)cc1", "note": "[CBK034388]", "% of control remaining": 115.104}, {"smiles": "COc1ccc(CN(Cc2ccc(OC)cc2)Cc2ccc(S(=O)(=O)N3CCOC3=O)cc2)cc1", "note": "[CBK014818]", "% of control remaining": 119.52}, {"smiles": "COc1ccc(CN(CCCN2CCOCC2)C(=O)NCCCN2CCCC2=O)cc1OC", "note": "[CBK159180]", "% of control remaining": 78.0786}, {"smiles": "CN(Cc1nncn1C)C(=O)c1cnc2c(c1)c(C(C)(C)C)nn2C", "note": "[CBK304154]", "% of control remaining": 105.861}, {"smiles": "COc1ccc(C(=O)Nc2nnc[nH]2)cc1", "note": "[CBK025569]", "% of control remaining": 139.008}, {"smiles": "CC(C)CCNC(=O)N(CCc1ccccc1)Cc1ccccc1", "note": "[CBK155351]", "% of control remaining": 93.9011}, {"smiles": "Cc1nn(C)c(C)c1OCC(=O)Nc1sc2c(c1C#N)CCC2", "note": "[CBK306374]", "% of control remaining": 126.088}, {"smiles": "Cc1ccccc1C(c1cnccn1)N(C)C(=O)C1CCN(S(=O)(=O)c2cn(C)cn2)CC1", "note": "(centres unmarked) [CBK060264]", "% of control remaining": 178.447}, {"smiles": "FC(F)(F)c1cc(-c2ccccc2)nc2onc(OCCN3CCOCC3)c12", "note": "[CBK269392]", "% of control remaining": 113.218}, {"smiles": "COc1ccc(-c2cnn3c(N)c4c(nc23)CCC4)cc1", "note": "[CBK287987]", "% of control remaining": 122.226}, {"smiles": "Cc1cnn(-c2cc(N3CCC(n4cc(C5CC5)nn4)CC3)ncn2)c1", "note": "[CBK306721]", "% of control remaining": 70.8431}, {"smiles": "CCc1ccccc1S(=O)(=O)N1CCOC(c2cnn(CC)c2)C1", "note": "(centres unmarked) [CBK305421]", "% of control remaining": 82.4239}, {"smiles": "CCC(CN1CCOCC1)NC(=O)Cc1coc2cc(C)ccc12", "note": "(centres unmarked) [CBK282791]", "% of control remaining": 123.429}, {"smiles": "CC(OC(=O)c1ccc2c(c1)C(=O)N(c1ccc(Cl)cc1)C2=O)C(=O)c1ccccc1", "note": "(centres unmarked) [CBK156661]", "% of control remaining": 81.9451}, {"smiles": "Cc1cccnc1NC(=O)C(C)Oc1ccccc1", "note": "(centres unmarked) [CBK268643]", "% of control remaining": 149.802}, {"smiles": "COCc1cc(=O)n2ncc(-c3ccccc3)c2[nH]1", "note": "[CBK288168]", "% of control remaining": 91.8307}, {"smiles": "COc1ccc(Cl)cc1NS(=O)(=O)N1CCOCC1", "note": "[CBK269937]", "% of control remaining": 138.132}, {"smiles": "CS(=O)(=O)c1ccc(-c2ccc(CN3CCN(C(=O)Cc4ccc(F)cc4F)CC3)cn2)cc1", "note": "[CBK162618T]", "% of control remaining": 109.629}, {"smiles": "COc1ccccc1-c1nccnc1NCCCO", "note": "[CBK088971]", "% of control remaining": 219.979}, {"smiles": "CC1CCC(C(=O)NC(Cc2ccccc2)C(=O)O)CC1", "note": "(centres unmarked) [CBK287080]", "% of control remaining": 122.662}, {"smiles": "CC(C)(C)c1ccc(C(=O)NC(=S)Nc2ccc(O)c(-c3nc4cc(Cl)ccc4o3)c2)cc1", "note": "[CBK264169]", "% of control remaining": 100}, {"smiles": "COC(=O)CO[C@@H]1CO[C@H]2[C@@H]1OC[C@@H]2NC(=S)Nc1ccccc1", "note": "[CBK289459]", "% of control remaining": 121.727}, {"smiles": "Cc1cc(C)nc(Nc2cccc(C3CCCN3C(=O)CCOc3ccccc3C)n2)n1", "note": "(centres unmarked) [CBK286496]", "% of control remaining": 128.095}, {"smiles": "CCOc1ccc(NC(=O)NC(CC)c2cnn(C)c2)cc1Cl", "note": "(centres unmarked) [CBK307262]", "% of control remaining": 111.427}, {"smiles": "Cc1cnc(CNC(=O)N2CCN(Cc3ccccc3)CC2)cn1", "note": "[CBK155627]", "% of control remaining": 98.0959}, {"smiles": "Cc1ccc(OCC(=O)NC(C)c2ccc(F)cc2F)c([N+](=O)[O-])n1", "note": "(centres unmarked) [CBK295662]", "% of control remaining": 137.99}]}]}
